The target in this assay is T1, V5-tagged Diedel (wild type, Die^RGD-V5) (Drosophila melanogaster) (UniProt Q9VAK8).
T1 sequence: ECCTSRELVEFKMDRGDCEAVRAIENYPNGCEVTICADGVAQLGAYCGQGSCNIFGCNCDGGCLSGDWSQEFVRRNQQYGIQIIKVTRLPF
The experiment in a line: co-IP; S2R+ cells cotransfected with Cat-Flag and Die-V5, +/- UV 100 mJ/cm^2; native (non-crosslinking) conditions; lysis buffer with 0.1% SDS, 1% Triton, 150 mM NaCl; Protein G Sepharose overnight at 4°C; washes up to 500 mM NaCl; western blot with anti-Flag and anti-V5. In general terms: In western blotting, separated proteins are transferred to a membrane and probed.

Results are given in words; binding and its absence hold for the method and conditions named. In cells and extracts the contact can be indirect. Sequences can lack the tags named with a protein.

B1: Flag-tagged Catalase (Flag-Cat) (enzyme, UniProt P17336 1-506)
chain: MAGRDAASNQLIDYKNSQTVSPGAITTGNGAPIGIKDASQTVGPRGPILLQDVNFLDEMSHFDRERIPERVVHAKGAGAFGYFEVTHDITQYCAAKIFDKVKKRTPLAVRFSTVGGESGSADTARDPRGFAVKFYTEDGVWDLVGNNTPVFFIRDPILFPSFIHTQKRNPQTHLKDPDMFWDFLTLRPESAHQVCILFSDRGTPDGYCHMNGYGSHTFKLINAKGEPIYAKFHFKTDQGIKNLDVKTADQLASTDPDYSIRDLYNRIKTCKFPSWTMYIQVMTYEQAKKFKYNPFDVTKVWSQKEYPLIPVGKMVLDRNPKNYFAEVEQIAFSPAHLVPGVEPSPDKMLHGRLFSYSDTHRHRLGPNYLQIPVNCPYKVKIENFQRDGAMNVTDNQDGAPNYFPNSFNGPQECPRARALSSCCPVTGDVYRYSSGDTEDNFGQVTDFWVHVLDKCAKKRLVQNIAGHLSNASQFLQERAVKNFTQVHADFGRMLTEELNLAKSSKF
In the case of B1, the binding result was “no binding”.

The record behind these values is paper PMC9116668.
